Laboratory results reported in PMC4068365.
No constants are given. Whether binding was seen depends on the method and setting. Blank lines part the entries; values can stand above or below the substance they belong to.

The chains behind the UniProt entries cited, without tags or fusion partners. Where a name states a change or a piece, a line headed by the entry shows the natural chain unless it says otherwise. A line that says so, or that is headed by a name, gives the form on record, which may keep a tag or linker. Residues count along the entry.
FH 10–12 (complement factor H, CCP modules 10–12) (P08603, residues 566-745): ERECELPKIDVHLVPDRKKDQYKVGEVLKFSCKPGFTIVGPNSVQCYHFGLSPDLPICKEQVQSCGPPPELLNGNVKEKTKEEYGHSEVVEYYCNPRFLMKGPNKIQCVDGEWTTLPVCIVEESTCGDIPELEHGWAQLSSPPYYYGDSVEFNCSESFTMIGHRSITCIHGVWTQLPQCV
FH 11–12 (complement factor H, CCP modules 11–12) (P08603, form named): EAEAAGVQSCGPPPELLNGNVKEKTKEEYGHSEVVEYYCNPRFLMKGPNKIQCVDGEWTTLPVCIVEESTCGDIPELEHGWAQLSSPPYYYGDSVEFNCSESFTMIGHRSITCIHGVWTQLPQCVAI
FH 10–11 (complement factor H, CCP modules 10–11) (P08603, form named): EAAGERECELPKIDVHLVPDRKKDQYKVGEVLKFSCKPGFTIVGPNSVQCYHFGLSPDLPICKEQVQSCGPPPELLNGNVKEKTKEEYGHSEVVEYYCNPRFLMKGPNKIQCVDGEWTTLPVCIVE

Columns and labels:
[1] = target: FH 11–12 (complement factor H, CCP modules 11–12) (human) (UniProt P08603); test: SAXS; synchrotron SAXS, 20 °C, phosphate-buffered saline, 0.3–10.7 mg/mL, extrapolated to infinite dilution; mass from I(0) against bovine serum albumin and from the dummy-atom model volume; both purified
[2] = target: FH 11–12 (complement factor H, CCP modules 11–12) (human) (UniProt P08603); test: SEC; elution volume from a calibrated size-exclusion column (Hi-Load 16/60 Superdex 75) during purification; both purified
[3] = target: FH 10–11 (complement factor H, CCP modules 10–11) (human) (UniProt P08603); test: SAXS; synchrotron SAXS, 20 °C, phosphate-buffered saline, 0.3–10.7 mg/mL, extrapolated to infinite dilution; mass from I(0) against bovine serum albumin and from the dummy-atom model volume; both purified
[4] = target: FH 10–11 (complement factor H, CCP modules 10–11) (human) (UniProt P08603); test: SEC; elution volume from a calibrated size-exclusion column (Hi-Load 16/60 Superdex 75) during purification; both purified
[5] = target: FH 10–12 (complement factor H, CCP modules 10–12) (human) (UniProt P08603); test: SAXS; synchrotron SAXS, 20 °C, phosphate-buffered saline, 0.3–10.7 mg/mL, extrapolated to infinite dilution; mass from I(0) against bovine serum albumin and from the dummy-atom model volume; both purified
[6] = target: FH 10–12 (complement factor H, CCP modules 10–12) (human) (UniProt P08603); test: SEC; elution volume from a calibrated size-exclusion column (Hi-Load 16/60 Superdex 75) during purification; both purified

binding [1]: no binding (tested: 0.3–10.7 mg/mL) | binding [2]: no binding
Substance: FH 11–12 (complement factor H, CCP modules 11–12) (from UniProt P08603 627-747) (domain or fragment)

binding [3]: no binding (tested: 0.3–10.7 mg/mL) | binding [4]: no binding
Substance: FH 10–11 (complement factor H, CCP modules 10–11) (from UniProt P08603 566-687) (domain or fragment)

binding [5]: no binding (tested: 0.3–10.7 mg/mL) | binding [6]: no binding
Substance: FH 10–12 (complement factor H, CCP modules 10–12) (from UniProt P08603 566-745) (domain or fragment)
